Patent US11254700B2, “GSK-3β inhibitors and use thereof in methods of treatment” (UNIVERSITY OF HAWAII, priority 2017, dated 2022)

Details: PAMPA, 5 h, 20 μM, pH 7.4
Protocol: Samples were run in quadruplicate.
Oral administration is noninvasive and is preferred for chronical diseases such as Alzheimer's disease and other CNS disorders. […] In the PAMPA model, the amount of target compounds diffused from a donor compartment to an acceptor compartment through a tri-layer phospholipid pre-coated membrane are measured to assess oral-absorption potential of drug candidates. In the present study, 1, 4, 9, 17, 21 and 30 were evaluated with the PAMPA assay.

SMILES: CC(C)NCC(O)COc1ccc(CC(N)=O)cc1 (stereo not shown) [Atenolol, reference compound]
- R (percent recovery): 40%
